For part of these data: Expression values are those of the mRNA of the gene that encodes the peptide; a gene is named only where it was looked up.
Legend:
[1] = system: source genes of the peptides (mRNA) in tumor and normal tissue; experiment: Expression profiling of source genes by Affymetrix microarrays (target coverage); parameters: species or system human; conditions: over-expression = more than 1.5-fold higher expression on tumor vs. normal tissue with highest expression, gene with minimal coverage decisive; for Target coverage for source genes of selected peptides, BPHI/PCA (%): BPHI/PCA (prostate cancer) samples; for Target coverage for source genes of selected peptides, CRC (%): CRC tumor samples; for Target coverage for source genes of selected peptides, GB (%): GB tumor samples; for Target coverage for source genes of selected peptides, GC (%): GC tumor samples; for Target coverage for source genes of selected peptides, HCC (%): HCC tumor samples; for Target coverage for source genes of selected peptides, NSCLC (%): NSCLC tumor samples; for Target coverage for source genes of selected peptides, PC (%): PC tumor samples; for Target coverage for source genes of selected peptides, RCC (%): RCC tumor samples
[2] = Identification and label-free relative LC-MS quantitation of HLA-presented peptides on tumor and normal tissue samples (XPRESIDENT presentation profiles); parameters: species or system human; conditions: for Entities of particular interest: entities where the peptide was over-presented on cancer samples compared to normal tissues; for Additional entities of particular interest (presentation of selected peptides across entities): tumor entities on which the HLA-presented peptide was found, entity abbreviations defined in the title of Table 4B

Substance | Target coverage for source genes of selected peptides, BPHI/PCA (%) [1] | Target coverage for source genes of selected peptides, CRC (%) [1] | Target coverage for source genes of selected peptides, GB (%) [1] | Target coverage for source genes of selected peptides, GC (%) [1] | Target coverage for source genes of selected peptides, HCC (%) [1] | Target coverage for source genes of selected peptides, NSCLC (%) [1] | Target coverage for source genes of selected peptides, PC (%) [1] | Target coverage for source genes of selected peptides, RCC (%) [1] | Entities of particular interest [2] | Additional entities of particular interest (presentation of selected peptides across entities) [2]
93: peptide found in AURKA (gene looked up) (RLYGYFHDA; listed as Homo sapiens) [compound 93] | I (<19% over-expression = I) | III (50-69% = III) | II (20-49% = II) | III (50-69% = III) | II (20-49% = II) | II (20-49% = II) | II (20-49% = II) | I (<19% over-expression = I) | NSCLC, PC | –
94: peptide found in ACKR2 (gene looked up) (YLDEVAFML; listed as Homo sapiens) [compound 94] | I (<19% over-expression = I) | I (<19% over-expression = I) | I (<19% over-expression = I) | I (<19% over-expression = I) | I (<19% over-expression = I) | I (<19% over-expression = I) | II (20-49% = II) | I (<19% over-expression = I) | NSCLC, HCC, OC | UBC, BRCA, GBC_CCC
104: peptide found in KLK3 (gene looked up) (DLPTQEPALGTT; listed as Homo sapiens) [compound 104] | IV (>70% = IV) | I (<19% over-expression = I) | I (<19% over-expression = I) | I (<19% over-expression = I) | I (<19% over-expression = I) | I (<19% over-expression = I) | – | I (<19% over-expression = I) | – | BPH
112: peptide found in KIF4A (gene looked up) (ILAQDVAQL; listed as Homo sapiens) [compound 112] | I (<19% over-expression = I) | IV (>70% = IV) | III (50-69% = III) | III (50-69% = III) | I (<19% over-expression = I) | II (20-49% = II) | II (20-49% = II) | I (<19% over-expression = I) | – | MEL, AML, NHL

From patent publication US20160279215A1, “NOVEL PEPTIDES AND COMBINATION OF PEPTIDES FOR USE IN IMMUNOTHERAPY AGAINST VARIOUS TUMORS” (immatics biotechnologies GmbH, priority 2015, published 2016)
